Results are given in words; binding and its absence hold for the method and conditions named. Binding seen in cells or lysates may run through a third protein. Binding can be weak; no strength is given. Where a sequence is shown, tags or fusion partners need not be part of it.
How the values were obtained:
[1] = target: FLAG-tagged cTAGE5 wild-type (human); test: co-IP
[2] = target: FLAG-tagged cTAGE5 R757G (human); test: co-IP

B1: HA-tagged Sec12 (protein, UniProt Q9HCU5 1-417)
chain: MGRRRAPELYRAPFPLYALQVDPSTGLLIAAGGGGAAKTGIKNGVHFLQLELINGRLSASLLHSHDTETRATMNLALAGDILAAGQDAHCQLLRFQAHQQQGNKAEKAGSKEQGPRQRKGAAPAEKKCGAETQHEGLELRVENLQAVQTDFSSDPLQKVVCFNHDNTLLATGGTDGYVRVWKVPSLEKVLEFKAHEGEIEDLALGPDGKLVTVGRDLKASVWQKDQLVTQLHWQENGPTFSSTPYRYQACRFGQVPDQPAGLRLFTVQIPHKRLRQPPPCYLTAWDGSNFLPLRTKSCGHEVVSCLDVSESGTFLGLGTVTGSVAIYIAFSLQCLYYVREAHGIVVTDVAFLPEKGRGPELLGSHETALFSVAVDSRCQLHLLPSRRSVPVWLLLLLCVGLIIVTILLLQSAFPGFL
- binding [1]: binds
- binding [2]: binds
